PubChem BioAssay AID1224826 – NIAID | 2016

Assay: 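Regulators of Tlr4 signalling leading to Tnf-alpha expression in macrophages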 (primary screen)
Cell system: RAW264.7 G9 macrophages from mouse bearing reporters for p65 (GFP) and the Tnf promoter (mCherry)
Reagents: siRNA pool against mouse genes, 100 nM
Duration: 16 h of LPS stimulation, after 2 days of siRNA transfection
Conditions: bacterial lipopolysaccharide (Salmonella minnesota R595), 10 ng/ml
Detection: 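Imaged Tnf reporter mCherry in nuclei, minus background, normalised per plate to the median and expressed as robust z-scores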
Direction: Tnf reporter robust z-score: higher = stronger Tnf promoter reporter signal after LPS; Tnf reporter intensity: higher = stronger Tnf promoter reporter signal
Call rule: 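a well counts as active at a score of -1.3 or below (Tlr4 knock-down control median) or above 3 (raised signal); controls and wells holding fewer than 50 cells are excluded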
Meaning of the calls: active = Tnf reporter clearly lowered or raised; inactive = no clear change in Tnf reporter
Here is one part, drawn at random, of about 17,000 deposited reagents. About 1,110 of them (6.6%) were called active. 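Active means lowered or raised reporter signal; replicate intensities are raw and not normalised per plate.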 The numbers tell different reagents against one gene apart.

Gene,pool no.,Tnf reporter robust z-score,fewer than 50 cells in well,"Tnf reporter intensity, replicate 1","Tnf reporter intensity, replicate 2",activity call
Pcca,1,0.87,enough cells in well,345,210,inactive
Eeig1,1,,fewer than 50 cells per well; well left out of calls,106,141,inactive
Atp13a1,1,-0.61,enough cells in well,104,144,inactive
Slc6a20a,1,3.11,enough cells in well,269,239,active
Ncan,1,-0.47,enough cells in well,172,131,inactive
Akr7a5,1,0.43,enough cells in well,191,196,inactive
Peg12,1,-0.52,enough cells in well,124,87,inactive
Lrrc10,1,-1.07,enough cells in well,113,100,inactive
Zfp628,1,-0.16,enough cells in well,96.9,142,inactive
Pramel13,1,,fewer than 50 cells per well; well left out of calls,232,77.9,inactive
Zfp759,1,-0.86,enough cells in well,150,143,inactive
Rbmx,1,4.98,enough cells in well,374,311,active
Cypt4,1,-1.29,enough cells in well,135,45.7,inactive
Mmel1,1,-0.75,enough cells in well,194,65.4,inactive
Rft1,1,3.29,enough cells in well,406,333,active
Rab20,1,-0.43,enough cells in well,296,155,inactive
Plk3,1,0.3,enough cells in well,238,157,inactive
Minar2,1,1.7,enough cells in well,269,242,inactive
Slc39a3,1,,fewer than 50 cells per well; well left out of calls,49,53.3,inactive
Gpld1,1,-0.99,enough cells in well,173,53.8,inactive
Mdga1,1,1.43,enough cells in well,227,146,inactive
Rab11a,1,0.51,enough cells in well,361,241,inactive
Syt3,1,0.28,enough cells in well,137,94.4,inactive
Stoml2,1,-0.6,enough cells in well,95,65.2,inactive
Sva,1,,fewer than 50 cells per well; well left out of calls,52.5,56,inactive
Morc2b,1,,fewer than 50 cells per well; well left out of calls,151,32.3,inactive
Cnp,1,0.69,enough cells in well,140,303,inactive
Pxmp4,1,-0.03,enough cells in well,141,115,inactive
Gzmn,1,0.18,enough cells in well,236,191,inactive
Krt75,1,0.03,enough cells in well,207,177,inactive
Fgd4,1,0.92,enough cells in well,297,197,inactive
Mllt3,1,3.59,enough cells in well,379,302,active
Mccc1,1,0.43,enough cells in well,339,204,inactive
Hoxd11,1,0.22,enough cells in well,227,227,inactive
Ldlrad4,1,2.79,enough cells in well,337,336,inactive
Nrgn,1,-0.1,enough cells in well,227,181,inactive
Ccdc83,1,-0.27,enough cells in well,169,67.5,inactive
Calb1,1,0.31,enough cells in well,162,176,inactive
Zfp260,1,2.14,enough cells in well,207,223,inactive
Tsnax,1,,fewer than 50 cells per well; well left out of calls,58.1,45.6,inactive
Klk11,1,0.98,enough cells in well,206,82,inactive
Ska1,1,,fewer than 50 cells per well; well left out of calls,131,52.2,inactive
Ppp1r9b,1,0.93,enough cells in well,305,268,inactive
Nyap1,1,1.97,enough cells in well,339,272,inactive
Gm4922,1,-0.26,enough cells in well,167,129,inactive
Zfp423,1,0.28,enough cells in well,212,299,inactive
Pon2,1,-1.26,enough cells in well,142,110,inactive
Polr1f,1,,fewer than 50 cells per well; well left out of calls,193,167,inactive
Pip5kl1,1,0.46,enough cells in well,229,184,inactive
Vps52,1,0.61,enough cells in well,228,336,inactive
Apol10b,1,-0.84,enough cells in well,137,118,inactive
Mllt10,1,0.16,enough cells in well,262,229,inactive
Gm38404,1,-0.29,enough cells in well,180,145,inactive
Pkhd1l1,1,0.83,enough cells in well,189,142,inactive
Nodal,1,-1.24,enough cells in well,116,126,inactive
Sfmbt1,1,1.42,enough cells in well,145,155,inactive
Sfmbt1,2,1.14,enough cells in well,278,231,inactive
Serpinb1a,1,0.87,enough cells in well,348,290,inactive
Faf1,1,1.16,enough cells in well,326,312,inactive
Rpl36,1,-0.66,enough cells in well,96.1,102,inactive
Kdm4a,1,-0.13,enough cells in well,216,103,inactive
Slc72a1,1,0.59,enough cells in well,293,198,inactive
Hecw1,1,0.04,enough cells in well,158,181,inactive
Klf4,1,-0.24,enough cells in well,241,123,inactive
Ctsg,1,0.49,enough cells in well,284,226,inactive
Dnttip2,1,-0.04,enough cells in well,204,74,inactive
1810009A15Rik,1,-1.48,enough cells in well,114,38.8,active
1700001O22Rik,1,-0.34,enough cells in well,185,76.3,inactive
Gtpbp3,1,0.68,enough cells in well,351,168,inactive
Chst11,1,1.06,enough cells in well,205,140,inactive
Or5p54,1,,fewer than 50 cells per well; well left out of calls,39.1,135,inactive
Cdk2ap1,1,0.33,enough cells in well,290,215,inactive
Ccr4,1,0.61,enough cells in well,228,411,inactive
Otor,1,0.61,enough cells in well,293,217,inactive
Phkg2,1,0.62,enough cells in well,214,215,inactive
